Test results: PubChem BioAssay AID448 (National Center for Advancing Translational Sciences (NCATS), 2006)
The whole screen tested about 65,000 compounds, of which about 45 (0.07%) were called active. Inconclusive results, whose numbers are uncertain, are shown with a selection of clear calls. The call rests on the fitted dose curve. Potencies beside an inconclusive call are fits to weak or partial responses and may not hold up. Some structures have more than one record in an assay (separate samples or runs), and their calls can disagree.

Test system: Schistosoma mansoni peroxiredoxin 2 (Prx2)
Test: Schistosoma Mansoni Peroxiredoxins (Prx2)
Conditions: S. mansoni Prx2 activity coupled to TGR/GSH (TGR is thioredoxin glutathione reductase), NADPH fluorescence loss, qHTS
Outline: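 Prx2 activity was followed as the loss of NADPH fluorescence (ex 365/em 450 nm), read every 30 sec for 8 min after H2O2 start. The enzyme mix (50 nM Prx2, 25 nM TGR, GSH, NADPH; pH 7.4 phosphate buffer) was incubated with compound for 15 min at room temperature first.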
Potency means the concentration at half of the fitted maximal effect.

Compound | Potency
CCOc1ccc(OCC)c(NC(=O)CSc2nc3cccnc3n2C)c1 | inconclusive: 63.4 µM [partial curve]
N#Cc1c(-c2ccco2)c2c([nH]c1=S)CCCC2 | inconclusive: 130 µM [partial curve]
CC(C)(C)NC(=O)C(Cc1ccccc1)NS(=O)(=O)c1ccc2c(c1)CCC(=O)N2 (stereo not drawn) | inactive: > 57 µM
C/C=C1\C[N@@+]2(C)CC[C@@]34C(=C(C=O)[C@H]1C[C@H]32)Nc1ccccc14 | inconclusive: 27.6 µM [partial curve]
Cc1cc(-c2ccc(N=Nc3ccc4c(S(=O)(=O)O)cc(S(=O)(=O)O)c(N)c4c3O)c(C)c2)ccc1N=Nc1ccc2c(S(=O)(=O)O)cc(S(=O)(=O)O)c(N)c2c1O | inactive: > 57 µM
Cn1cccc1Cc1nnc(SCC(=O)NCc2ccc3c(c2)OCO3)n1CCc1ccccc1 | inconclusive: 70.4 µM [partial curve]
COc1ccccc1-c1oc2ccccc2c(=O)c1OC | inconclusive: 65.2 µM [single point]
CCn1c(SCc2ccc(OC)cc2)nnc1-c1ccncc1 | inactive: > 57 µM
CC(C)(C)NC[C@H](O)c1ccccc1Cl | inactive: > 57 µM
Cn1c(C(=O)N2CCCC2)cc2c(=O)n(C)c3ccccc3c21 | inactive: > 57 µM
Cn1cnc([N+](=O)[O-])c1Sc1nnc(-c2cccnc2)n1C | inconclusive: 34.5 µM [partial curve]
O=C(OCCN(C1=NS(=O)(=O)c2ccccc21)c1ccc(Cl)cc1)c1ccco1 | inconclusive: 77.6 µM [single point]
COC(=O)CS(=O)(=O)c1nnc([C@H](Cc2ccccc2)NC(=O)OC(C)(C)C)o1 | inconclusive: 147 µM [single point]
c1ncc(-c2ccc3c(c2)OCO3)c(NCCc2cnc[nH]2)n1 | inactive: > 57 µM
CCCC1(C(=O)OC)NC(c2cc(OC)c(OC)c(OC)c2)C2C(=O)N(CC)C(=O)C21 (stereo not drawn) | inactive: > 57 µM
COC(=O)c1[nH]c(C)c(/C(O)=C2\C(=O)C(=O)N(CCN(C)C)C2c2ccc(OC)cc2)c1C (stereo not drawn) | inconclusive: 66.9 µM [single point]
CCOC(=O)Cn1c2c(c(-c3ccccc3OC)cc1=O)CCCC2 | inconclusive: 62.9 µM [single point]
OCc1ccncc1.OCc1ccncc1.[Cl][Pt]([Cl])([Cl])[Cl] | inconclusive: 74.5 µM [partial curve]
O=C(C[n+]1ccc2ccccc2c1)c1ccc2ccc3ccccc3c2c1 | inconclusive: 60.8 µM [single point]
O=C1CCCC2=C1C1(O)C(=O)c3ccccc3C1(O)O2 (stereo not drawn) | inconclusive: 129 µM [partial curve]
O=C(c1ccco1)N1CCN(c2ncccn2)CC1 | inactive: > 57 µM
O=C(Nc1ccccc1)N1CC[C@@]2(CCCN(C(=O)c3cc(C(F)(F)F)cc(C(F)(F)F)c3)C2)C1 | inactive: > 57 µM
Cc1ccc(-n2ncc3c(=O)[nH]c(SCC(=O)N4CCOCC4)nc32)cc1 | inactive: > 57 µM
CCC(=O)Nc1c(C(=O)Nc2cccc(OC)c2)oc2ccccc12 | inconclusive: 45.2 µM [single point]
COC(=O)N1CCN(C(=O)Cc2ccc(Cl)c(Cl)c2)[C@H](CN2CCCC2)C1 | active: 14.1 µM
C[N+](C)(C)c1cc2c(nn1)Nc1ccccc1S2 | inconclusive: 93.7 µM [single point]
Cc1cc(C)c(S(=O)(=O)NCc2cn3c(C)csc3n2)cc1C | inconclusive: 72.7 µM [single point]

Quoted from the listing:
`O=C(c1ccco1)N1CCN(c2ncccn2)CC1` – Potency: inactive: > 57 µM
`CCCC1(C(=O)OC)NC(c2cc(OC)c(OC)c(OC)c2)C2C(=O)N(CC)C(=O)C21` (stereo not drawn) – Potency: inactive: > 57 µM
`Cc1ccc(-n2ncc3c(=O)[nH]c(SCC(=O)N4CCOCC4)nc32)cc1` – Potency: inactive: > 57 µM
`c1ncc(-c2ccc3c(c2)OCO3)c(NCCc2cnc[nH]2)n1` – Potency: inactive: > 57 µM
`O=C(OCCN(C1=NS(=O)(=O)c2ccccc21)c1ccc(Cl)cc1)c1ccco1` – Potency: inconclusive: 77.6 µM [single point]

Following part

Compound | Potency
Cc1cc2cc(CCNC(=O)c3ccc(S(=O)(=O)N4CCOCC4)cc3)c(=O)[nH]c2cc1C | inconclusive: 279 µM [partial curve]
CCC(=C(CC)c1ccc(O)cc1)c1ccc(O)cc1 | inactive: > 57 µM
CC(C)CC(=O)C[C@H](O)C(Cl)(Cl)Cl | inactive: > 57 µM
CCCCCCCCCCCCCCCC(=O)NC[C@@H](COP(=O)([O-])OCC[N+](C)(C)C)OCC | inconclusive: 69.8 µM [single point]
CCOC(=O)C1=C(N)N(c2ccccc2Oc2ccccc2)C(=O)C1 | inconclusive: 61.8 µM [single point]
CC(=O)NC(=O)NC1OC(=O)C(Cl)=C1Cl (stereo not drawn) | inconclusive: 111 µM [partial curve]
c1ccc2c([C@@H]3CCN(CCN4CCOCC4)C3)c[nH]c2c1 | inactive: > 57 µM
Cc1cc(C)cc(N(CC(=O)N2CCN(c3ccccc3)CC2)S(=O)(=O)c2c(C)noc2C)c1 | inactive: > 57 µM
NC(=O)c1ncn([C@@H]2O[C@@H](CO)[C@@H](O)[C@H]2O)n1 | inconclusive: 48.8 µM [partial curve]
CCO[C@H]1O[C@@H]([C@H](COCc2ccccc2)OCc2ccccc2)[C@@H](OCc2ccccc2)[C@H]1O | inactive: > 57 µM
COc1ccc2cc(CN(CC3COCCO3)S(=O)(=O)c3ccccc3)c(=O)[nH]c2c1 (stereo not drawn) | inconclusive: 33.2 µM [partial curve]
O=C(NCCCN1CCN(c2ccccc2F)CC1)Nc1ccc(F)cc1 | inconclusive: 164 µM [partial curve]
CCC(=O)Nc1c(OC(=O)CC)ccc2c(C)cc(=O)oc12 | inconclusive: 63.4 µM [single point]
Cc1cc(C)nc(SCCc2cccc[n+]2C)n1 | inconclusive: 44.4 µM [single point]
Cc1ccc2c(c1)nnn2C1CCN(C(=O)c2cccs2)CC1 | inactive: > 57 µM
O=C(CN1CC(=O)Oc2ccccc21)OCC(=O)c1ccccc1 | inconclusive: 66.6 µM [single point]
COc1cc(S(=O)(=O)N2CCCCC2)ccc1NC(=O)c1ccc(F)cc1 | inactive: > 57 µM
COc1cc2[nH]c(=O)n(CCC(=O)N3CCN(c4cc(Cl)ccc4C)CC3)c(=O)c2cc1OC | inconclusive: 104 µM [partial curve]
COc1ccccc1NC(=O)c1ccc(NS(=O)(=O)c2c(C)noc2C)cc1 | inconclusive: 94.2 µM [partial curve]
COc1cc(OC)cc(OCC(O)Cn2cnc3cc(C)c(C)cc32)c1 (stereo not drawn) | inconclusive: 111 µM [single point]
Nc1cc(N)c(OCC(F)(F)F)cc1OCC(F)(F)F | inconclusive: 2.46 µM [partial modulator]
Cc1c(-c2ccccc2)[n+](=O)c(-c2ccco2)c(C)n1[O-] | inconclusive: 54 µM [single point]
CCOc1cccc2cc(-c3nnc(NCc4ccco4)s3)c(=O)oc12 | inconclusive: 78.8 µM [single point]
CCOC(=O)c1cnc(-n2nc(C)cc2C)nc1N(CC)CC | inconclusive: 96.5 µM [single point]
Cc1cc(C)c(C#N)c(SCC(=O)Nc2ccc(S(=O)(=O)Nc3onc(C)c3C)cc2)n1 | inconclusive: 22.3 µM [partial curve]
O=c1cc(NCc2ccco2)[nH]c(=O)n1-c1ccc(Br)cc1 | inconclusive: 59.7 µM [partial curve]
